We go through two molecules from patent US20040152630A1.

Protein sequences, listed by entry. Tags and fused reporters are not part of them.
UniProt P63103: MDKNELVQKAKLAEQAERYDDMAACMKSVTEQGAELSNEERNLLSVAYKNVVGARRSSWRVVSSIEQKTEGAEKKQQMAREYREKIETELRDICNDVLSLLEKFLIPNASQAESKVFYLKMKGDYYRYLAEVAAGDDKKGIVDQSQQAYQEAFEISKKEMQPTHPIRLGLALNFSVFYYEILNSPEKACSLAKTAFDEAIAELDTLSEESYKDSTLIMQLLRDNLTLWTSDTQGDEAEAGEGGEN

No constants are given. Whether binding was seen depends on the method and setting. For some assays here: Binding seen in cells or lysates may run through a third protein. Some results given as binding are weak or reduced against the parent protein; the word gives no strength. Sequences can lack the tags named with a protein.

The target of test [1] is His-14-3-3? (immobilized) (UniProt P63103). Nature of the test: competition with [35S]-ASK1 for immobilized His-14-3-3.
The target of a further test is 14-3-3? dimer (UniProt P63103). Nature of the test: R18-Sepharose pull-down of 14-3-3 with Bad phosphopeptide as competitor.
In test [2] the target is His-14-3-3? (immobilized) (UniProt P63103). Nature of the test: competition: peptide preincubated with immobilized His-14-3-3 before [35S]-ASK1; PhosphorImager.
The target of test [3] is FLAG-tagged 14-3-3? (UniProt P63103). Kind of test: co-immunoprecipitation from transfected HEK293 cells.
For test [4] the target is unchanged. Kind of test: co-immunoprecipitation with anti-FLAG (M2) from transfected HEK293 cells.

As to PHCVPRDLSWLDLEANMCLP [R18 polypeptide (14-3-3 amphipathic groove binding antagonist)], the binding result (in test [1]; with 14-3-3? dimer; in test [2]) was “binds” in each case.

B1: EYFP-difopein (designed binder, not shown: large carriers)
chain: SADGAPHCVPRDLSWLDLEANMCLPGAAGLDSADGAPHCVPRDLSWLDLEANMCLPGAAGLE
On to B1, for which the binding entry with FLAG-tagged 14-3-3? [3] and with FLAG-tagged 14-3-3? [4] was “binds” each time.
